Measured values: PubChem BioAssay AID588590 (National Center for Advancing Translational Sciences (NCATS), 2011)
Where “and” joins values, the source holds several entries; their conditions need not be identical. Equal values may be shown once. Hit rate of the full screen: of about 390,000 compounds, about 4,000 (1%) were called active. This list was built around the results that the source calls inconclusive (neither active nor inactive); the mix of calls is not that of the screen. The call rests on the fitted dose curve; in most records, active means well fitted inhibition curve with a large enough effect; inconclusive means small, poorly fitted or top-dose-only effect, or another doubt; inactive means no such curve, though single readings can be large or run the other way. Potencies of inconclusive entries are doubtful fits and often do not repeat.

By UniProt entry, the sequences of proteins in these tests, tags left out. Where a name states a change or a piece, a line headed by the entry shows the natural chain unless it says otherwise.
UniProt Q9UNA4: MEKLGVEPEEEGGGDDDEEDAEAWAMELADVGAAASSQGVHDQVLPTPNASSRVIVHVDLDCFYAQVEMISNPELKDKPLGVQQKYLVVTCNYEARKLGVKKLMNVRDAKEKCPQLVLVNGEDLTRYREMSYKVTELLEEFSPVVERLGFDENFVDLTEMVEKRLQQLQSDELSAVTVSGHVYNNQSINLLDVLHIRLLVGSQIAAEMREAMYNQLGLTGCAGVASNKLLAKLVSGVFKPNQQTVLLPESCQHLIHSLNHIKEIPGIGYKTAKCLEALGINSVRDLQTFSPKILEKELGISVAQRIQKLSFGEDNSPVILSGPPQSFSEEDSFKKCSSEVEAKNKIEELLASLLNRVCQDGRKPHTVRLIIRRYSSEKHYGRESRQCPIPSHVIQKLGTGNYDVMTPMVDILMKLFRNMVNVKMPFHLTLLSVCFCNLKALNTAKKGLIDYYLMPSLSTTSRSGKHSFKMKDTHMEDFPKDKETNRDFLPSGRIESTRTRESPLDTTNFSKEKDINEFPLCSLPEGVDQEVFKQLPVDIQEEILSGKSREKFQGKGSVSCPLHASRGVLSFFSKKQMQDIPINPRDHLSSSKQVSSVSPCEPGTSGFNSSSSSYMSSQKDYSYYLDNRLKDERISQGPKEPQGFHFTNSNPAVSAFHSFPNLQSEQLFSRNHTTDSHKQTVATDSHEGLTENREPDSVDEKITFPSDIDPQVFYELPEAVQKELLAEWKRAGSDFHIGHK

target: DNA polymerase iota (Homo sapiens) (UniProt Q9UNA4); assay: qHTS for Inhibitors of Polymerase Iota; settings: Pol iota fluorescent replication assay, 10 min; series mostly up to 115 µM
In short: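 Fluorescent replication assay read twice, at 0 min and 10 min after adding 50 nM (final) substrate. Enzyme (10 nM) and compounds were first incubated 15 min at room temperature; enzyme-free buffer wells were negative controls.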
Potency means the concentration at half of the fitted maximal effect.

Structure (SMILES)	Potency
Cc1ccc(C(=O)Nc2nnc(SCc3cc(=O)c4c(C)ccc(C)c4[nH]3)s2)cc1	inconclusive: 89.1 µM [inhibitor, single point]
CCOc1ccc(NC(=O)CSc2nccn(-c3ccc4c(c3)OCCO4)c2=O)cc1	inconclusive: 22.4 µM [inhibitor, partial curve, poor fit]
O=C(O)C1=C/C(=C/C=[N+]2c3cc(O)c(O[C@H]4OC(CO)[C@@H](O)[C@@H](O)[C@@H]4O)cc3C[C@@H]2C(=O)[O-])C[C@H](C(=O)O)N1 (stereo partly specified)	inactive
COc1cccc(C2CC(=O)Nc3cc4c(cc32)CCC4)c1 (stereo unspecified)	inconclusive: 89.1 µM [inhibitor, single point]
Nc1nc(Nc2cccc(Cl)c2)nc(NCCO)c1[N+](=O)[O-]	inconclusive: 22.4 µM [inhibitor, single point]
COc1ccc(CC(=O)N/N=C/c2cc([N+](=O)[O-])cc(Br)c2O)cc1	inconclusive: 50.1 µM [inhibitor, partial curve]
CC(C)(C)c1ccc(Cn2nnc3c(=O)[nH]c(C4CCCN(C(=O)c5ccco5)C4)nc32)cc1 (stereo unspecified)	inconclusive: 12.6 µM [inhibitor, partial curve, poor fit]
COC(=O)CCSc1cc(NCCOC(C)=O)c([N+](=O)[O-])c2nonc12	inconclusive: 22.4 µM [inhibitor, partial curve, poor fit] and inconclusive: 20 µM [inhibitor, partial curve, poor fit]
COC(=O)C1Sc2[nH]c(=O)sc2C2c3ccccc3OC(=O)C12 (stereo unspecified)	inactive
O=C1N=c2ccccc2=C1c1sc(=S)n(NC(=O)c2cccc(O)c2)c1O	inconclusive: 50.1 µM [inhibitor, partial curve, poor fit]
Cc1ccc(-c2ccc(=O)n(CC(=O)NCc3ccco3)n2)cc1	inactive
C=CCNC(=O)c1cc2nc(C3CC3)cc(C(F)F)n2n1	inconclusive: 22.4 µM [inhibitor, full curve, poor fit]
COc1ccccc1CNC(=O)CSc1ccsc1[N+](=O)[O-]	inconclusive: 28.2 µM [inhibitor, full curve, poor fit]
Cc1cc2ccc(Cl)nc2nc1C	inactive
CC(C)Sc1nc2sccc2c(=O)n1-c1ccccc1	inconclusive: 14.1 µM [inhibitor, partial curve, poor fit]
COc1ccc(-c2cc(C(=O)Nc3cc(S(N)(=O)=O)ccc3C)c3ccccc3n2)cc1OC	inconclusive: 39.8 µM [inhibitor, single point]
